Assay results from paper doi:10.1101/2022.09.22.509083.
Read-outs that look alike come from different tables or passages of the source. Results are given in words; binding and its absence hold for the method and conditions named. For some assays here: In cells and extracts the contact can be indirect. Some results given as binding are weak or reduced against the parent protein; the word gives no strength. For some assays here: Where a sequence is shown, tags or fusion partners need not be part of it.

Amino acid sequences for entries named in this document (tags omitted). A change or cut given only in a name is not applied to a line headed by its entry. Chains listed by the source or under a name are the forms on record and can include a tag or linker. Residues count along the entry.
UniProt P47822: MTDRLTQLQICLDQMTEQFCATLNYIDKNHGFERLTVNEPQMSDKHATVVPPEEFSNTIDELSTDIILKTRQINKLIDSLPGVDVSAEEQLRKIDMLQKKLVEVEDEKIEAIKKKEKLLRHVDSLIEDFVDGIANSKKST
UniProt P43609: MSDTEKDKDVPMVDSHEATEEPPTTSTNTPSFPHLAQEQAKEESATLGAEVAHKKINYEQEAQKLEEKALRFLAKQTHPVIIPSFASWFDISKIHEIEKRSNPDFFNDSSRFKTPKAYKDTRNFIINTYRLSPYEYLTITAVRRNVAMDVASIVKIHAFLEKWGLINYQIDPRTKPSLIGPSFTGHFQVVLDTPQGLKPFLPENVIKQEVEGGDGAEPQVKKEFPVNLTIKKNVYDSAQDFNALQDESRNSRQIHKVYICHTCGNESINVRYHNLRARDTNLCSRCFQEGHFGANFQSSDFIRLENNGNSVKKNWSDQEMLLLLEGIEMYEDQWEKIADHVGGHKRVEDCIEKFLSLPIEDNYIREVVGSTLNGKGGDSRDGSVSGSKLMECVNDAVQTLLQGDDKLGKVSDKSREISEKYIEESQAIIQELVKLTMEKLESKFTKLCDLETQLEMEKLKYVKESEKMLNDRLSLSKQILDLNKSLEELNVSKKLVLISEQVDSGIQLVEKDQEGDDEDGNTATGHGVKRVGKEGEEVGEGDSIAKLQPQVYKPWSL
UniProt P32597: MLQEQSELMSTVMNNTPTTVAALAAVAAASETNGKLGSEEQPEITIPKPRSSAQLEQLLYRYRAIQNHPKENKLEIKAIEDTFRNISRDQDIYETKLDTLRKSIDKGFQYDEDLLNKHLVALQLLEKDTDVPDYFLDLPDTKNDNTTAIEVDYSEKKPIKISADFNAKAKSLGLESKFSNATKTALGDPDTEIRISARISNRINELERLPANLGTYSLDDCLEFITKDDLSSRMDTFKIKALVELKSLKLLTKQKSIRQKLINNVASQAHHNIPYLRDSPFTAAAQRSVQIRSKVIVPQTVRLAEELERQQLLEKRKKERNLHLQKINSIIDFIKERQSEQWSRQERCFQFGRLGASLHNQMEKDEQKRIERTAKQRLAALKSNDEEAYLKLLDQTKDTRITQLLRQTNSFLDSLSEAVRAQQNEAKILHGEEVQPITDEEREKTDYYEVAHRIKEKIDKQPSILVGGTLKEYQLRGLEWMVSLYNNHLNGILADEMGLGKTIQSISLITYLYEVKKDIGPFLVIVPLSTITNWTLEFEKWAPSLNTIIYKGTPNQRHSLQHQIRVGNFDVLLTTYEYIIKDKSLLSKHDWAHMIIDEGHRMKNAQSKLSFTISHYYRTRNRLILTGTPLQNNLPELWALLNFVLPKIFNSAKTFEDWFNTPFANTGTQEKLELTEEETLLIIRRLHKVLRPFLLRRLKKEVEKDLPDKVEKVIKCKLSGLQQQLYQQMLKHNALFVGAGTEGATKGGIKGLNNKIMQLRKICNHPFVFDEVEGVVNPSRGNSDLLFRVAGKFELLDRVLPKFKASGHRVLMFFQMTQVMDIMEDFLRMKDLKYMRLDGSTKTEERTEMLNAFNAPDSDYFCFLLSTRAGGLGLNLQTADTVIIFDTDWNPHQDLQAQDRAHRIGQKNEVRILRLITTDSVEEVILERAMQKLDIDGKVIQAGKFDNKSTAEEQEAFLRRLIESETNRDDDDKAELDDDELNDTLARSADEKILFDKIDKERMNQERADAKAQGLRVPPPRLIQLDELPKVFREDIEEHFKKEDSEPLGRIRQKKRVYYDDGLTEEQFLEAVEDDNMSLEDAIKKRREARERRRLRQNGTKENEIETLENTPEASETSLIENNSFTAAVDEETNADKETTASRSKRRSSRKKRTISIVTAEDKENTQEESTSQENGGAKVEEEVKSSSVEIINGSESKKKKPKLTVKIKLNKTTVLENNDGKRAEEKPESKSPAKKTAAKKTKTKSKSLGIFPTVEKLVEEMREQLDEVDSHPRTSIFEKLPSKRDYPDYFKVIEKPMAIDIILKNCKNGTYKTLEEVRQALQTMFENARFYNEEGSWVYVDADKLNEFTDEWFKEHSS
UniProt P32569: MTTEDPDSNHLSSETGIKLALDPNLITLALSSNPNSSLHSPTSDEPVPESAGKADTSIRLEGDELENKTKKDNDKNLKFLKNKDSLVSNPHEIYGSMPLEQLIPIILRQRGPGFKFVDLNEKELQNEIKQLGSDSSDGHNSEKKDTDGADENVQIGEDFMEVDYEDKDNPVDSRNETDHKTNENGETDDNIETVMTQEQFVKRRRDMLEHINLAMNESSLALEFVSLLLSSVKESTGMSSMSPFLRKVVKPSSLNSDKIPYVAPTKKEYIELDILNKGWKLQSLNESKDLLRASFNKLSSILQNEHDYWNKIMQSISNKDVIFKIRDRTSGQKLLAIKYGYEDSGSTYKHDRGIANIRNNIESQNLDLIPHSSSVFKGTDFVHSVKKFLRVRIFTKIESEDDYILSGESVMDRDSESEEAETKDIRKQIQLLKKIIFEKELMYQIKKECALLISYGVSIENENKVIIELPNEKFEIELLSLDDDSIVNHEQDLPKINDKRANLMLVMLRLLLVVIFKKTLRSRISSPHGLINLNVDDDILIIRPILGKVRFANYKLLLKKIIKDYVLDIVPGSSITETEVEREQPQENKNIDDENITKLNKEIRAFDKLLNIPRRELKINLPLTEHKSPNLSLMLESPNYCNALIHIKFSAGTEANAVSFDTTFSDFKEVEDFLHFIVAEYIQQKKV
Med17 domain (amino acids 346-687) fused to the Gal4 DNA binding domain (GBD): residues 346-687 of P32569
UniProt Q06639, residues 588-695: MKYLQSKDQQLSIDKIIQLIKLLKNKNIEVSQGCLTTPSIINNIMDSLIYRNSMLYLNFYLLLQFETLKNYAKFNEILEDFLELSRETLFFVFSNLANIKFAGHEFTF
UniProt P19263: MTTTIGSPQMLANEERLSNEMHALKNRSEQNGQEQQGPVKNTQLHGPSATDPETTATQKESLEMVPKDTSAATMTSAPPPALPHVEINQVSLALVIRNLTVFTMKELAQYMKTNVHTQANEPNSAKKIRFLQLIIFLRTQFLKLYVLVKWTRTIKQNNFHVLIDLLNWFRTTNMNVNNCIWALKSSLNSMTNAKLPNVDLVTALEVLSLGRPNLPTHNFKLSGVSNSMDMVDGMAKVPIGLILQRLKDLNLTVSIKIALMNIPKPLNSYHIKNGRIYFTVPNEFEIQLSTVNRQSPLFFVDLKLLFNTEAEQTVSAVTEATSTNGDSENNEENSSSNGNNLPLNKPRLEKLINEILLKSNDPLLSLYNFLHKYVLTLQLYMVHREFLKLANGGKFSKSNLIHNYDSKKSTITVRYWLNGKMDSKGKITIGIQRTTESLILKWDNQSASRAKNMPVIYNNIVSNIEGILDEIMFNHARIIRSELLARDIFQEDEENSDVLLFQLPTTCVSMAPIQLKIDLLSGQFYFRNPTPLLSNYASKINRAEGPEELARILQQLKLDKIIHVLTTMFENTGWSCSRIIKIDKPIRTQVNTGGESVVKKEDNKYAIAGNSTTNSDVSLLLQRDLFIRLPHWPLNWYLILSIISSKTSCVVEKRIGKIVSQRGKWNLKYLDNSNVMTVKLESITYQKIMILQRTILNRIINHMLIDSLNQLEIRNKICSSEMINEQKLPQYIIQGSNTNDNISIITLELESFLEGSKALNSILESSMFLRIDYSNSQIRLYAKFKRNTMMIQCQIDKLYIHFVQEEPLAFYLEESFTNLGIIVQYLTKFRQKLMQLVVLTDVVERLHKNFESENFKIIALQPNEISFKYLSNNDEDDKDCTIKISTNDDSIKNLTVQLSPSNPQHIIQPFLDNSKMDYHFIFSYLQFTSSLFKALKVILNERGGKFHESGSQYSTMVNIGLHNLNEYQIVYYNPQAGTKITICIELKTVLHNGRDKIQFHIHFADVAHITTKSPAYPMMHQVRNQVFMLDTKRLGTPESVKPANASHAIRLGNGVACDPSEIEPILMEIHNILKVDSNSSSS
UniProt P38781, residues 644-883: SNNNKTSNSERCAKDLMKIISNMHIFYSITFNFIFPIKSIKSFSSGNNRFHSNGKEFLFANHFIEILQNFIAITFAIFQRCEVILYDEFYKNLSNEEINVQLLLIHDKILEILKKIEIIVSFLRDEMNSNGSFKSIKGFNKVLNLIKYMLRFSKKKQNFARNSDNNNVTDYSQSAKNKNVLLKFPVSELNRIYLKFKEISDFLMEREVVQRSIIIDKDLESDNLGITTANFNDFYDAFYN

Assays:
[1] = molecular target: Med21 Mediator subunit fused to the GBD (S. cerevisiae) (UniProt P47822); assay: two-hybrid
[2] = molecular target: Rsc8 fused to the Gal4 DNA binding domain (GBD) (S. cerevisiae) (UniProt P43609); assay: two-hybrid
Rsc8-Myc (S. cerevisiae) = Rsc8-Myc (S. cerevisiae) (UniProt P43609); assay: co-IP
Sth1-Myc (S. cerevisiae) = Sth1-Myc (S. cerevisiae) (UniProt P32597); assay: co-IP
[3] = molecular target: Med17 Mediator head module subunit fused to the Gal4 DNA binding domain (GBD) (S. cerevisiae) (UniProt P32569); assay: two-hybrid
[4] = molecular target: Med17 domain (amino acids 346-687) fused to the Gal4 DNA binding domain (GBD) (S. cerevisiae) (UniProt P32569); assay: two-hybrid
[5] = molecular target: Med17 Mediator head module subunit fused to the Gal4 DNA binding domain (GBD) (S. cerevisiae) (UniProt P32569); assay: two-hybrid; remark: listed apart in the source

“Rsc3 fragment (amino acids 588-695) (from UniProt Q06639 588-695) (domain or fragment)” was tested. Which binding [1] did it give?
The binding was “binds”.

How did the binding [2] turn out when “Med17 fused to the Gal4 activation domain (GAD) (from UniProt P32569 1-687)” was run?
Its binding is “binds”.

“Med14 subunit of Mediator (from UniProt P19263 1-1082)” was tested. Which binding (Rsc8-Myc (S. cerevisiae)) did it give?
The binding was “binds”.

What about the binding (Sth1-Myc (S. cerevisiae)) of the same molecule?
Its binding is “binds”.

With “Rsc30 fragment (amino acids 644-883) (from UniProt P38781 644-883) (domain or fragment)” as the molecule, how does the binding [1] read?
Its binding is “binds weakly”.

What does the source list for “full-length Rsc8 fused to the Gal4 activation domain (GAD) (from UniProt P43609 1-557)”?
binding [3]: binds; binding [4]: binds

B1: Med22 fused to the Gal4 activation domain (GAD) (protein, UniProt P32570 1-121)
chain: MSNQALYEKLEQTRTILSVKLAELINMTTIADRNDDDEGSFAQENSELAVATTSVMMVNNQTMQLIKNVQDLLILTRSIKEKWLLNQIPVTEHSKVTRFDEKQIEELLDNCIETFVAEKTT
How did the binding [5] turn out when B1 was run?
Its binding is “binds”.
